In patent US9506032B2, “Engineered biological pacemakers” (The United States of America, as represented by the …, priority 2009, dated 2016):
At least one structure is not confirmed: it was looked up by name or label, or the drawing left a doubt.

System: spontaneously beating ESCs
Experiment: Spontaneous action potentials and Ca2+ signals in intact spontaneously beating ESCs (patch clamp with confocal imaging)
Assay type: cell-based, Mouse
Details: intact spontaneously beating ESCs (FIG. 6)
From the text: Mouse ES cells of line R1 were differentiated into cardiac cells using the “hanging drop” technique. ESCs were isolated from in vitro-grown embryoid bodies by microdissection followed by collagenase treatment. […] At day 2, EBs were transferred into bacteriological petri dishes and cultured in suspension until day 5. […] Individual spontaneously beating ESCs were isolated by microdissection and collagenase treatment.
ESCs differentiated in vitro for 9 to 20 days after plating of 7 days old embryoid bodies were studied during continuous superfusion with solution containing in mmol/L: 140 NaCl, 5.4 KCl, 5 HEPES, 2 MgCl2, 1.8 CaCl2, 10 glucose, (pH adjusted to 7.4 with NaOH). Selection of the cells for patch-clamp technique was based on spontaneous beating. Action potentials were measured at physiological temperature (35±2° C.) with standard current-clamp technique (Axopatch 200, Axon Instruments, Foster City, Calif., USA), pCLAMP7 software was used for data acquisition and analysis (Axon Instruments). Perforated patch-clamp technique was performed with β-escin added to the electrode solution. […]
Fluo-4 measurements are presented in terms of F/F0 (normalized Ca^2+ signal). […] were analyzed by programs developed using Delfi-7 software. The duration and width of LCRs were measured as the time at half-maximal amplitude of the normalized signal.

SMILES: CC(=O)C1=C(O)[C@@H]2[C@H]3c4c[nH]c5cccc(c45)C[C@H]3C(C)(C)N2C1=O [cyclopiazonic acid (CPA), cyclopiazonic acid]
- LCRs (effect of intervention): inhibited
- spontaneous AP firing and Ca2+ transients: became irregular, culminating in cessation of automaticity or in extremely rare and irregular beating
